From patent publication US9085536B2, “Aconitine compounds, compositions, uses, and preparation thereof” (priority 2011, dated 2015)
Some results were stated once for a whole list of compounds, not compound by compound.

By UniProt entry, the sequences of proteins in these tests, tags left out.
UniProt P15390, whole entry: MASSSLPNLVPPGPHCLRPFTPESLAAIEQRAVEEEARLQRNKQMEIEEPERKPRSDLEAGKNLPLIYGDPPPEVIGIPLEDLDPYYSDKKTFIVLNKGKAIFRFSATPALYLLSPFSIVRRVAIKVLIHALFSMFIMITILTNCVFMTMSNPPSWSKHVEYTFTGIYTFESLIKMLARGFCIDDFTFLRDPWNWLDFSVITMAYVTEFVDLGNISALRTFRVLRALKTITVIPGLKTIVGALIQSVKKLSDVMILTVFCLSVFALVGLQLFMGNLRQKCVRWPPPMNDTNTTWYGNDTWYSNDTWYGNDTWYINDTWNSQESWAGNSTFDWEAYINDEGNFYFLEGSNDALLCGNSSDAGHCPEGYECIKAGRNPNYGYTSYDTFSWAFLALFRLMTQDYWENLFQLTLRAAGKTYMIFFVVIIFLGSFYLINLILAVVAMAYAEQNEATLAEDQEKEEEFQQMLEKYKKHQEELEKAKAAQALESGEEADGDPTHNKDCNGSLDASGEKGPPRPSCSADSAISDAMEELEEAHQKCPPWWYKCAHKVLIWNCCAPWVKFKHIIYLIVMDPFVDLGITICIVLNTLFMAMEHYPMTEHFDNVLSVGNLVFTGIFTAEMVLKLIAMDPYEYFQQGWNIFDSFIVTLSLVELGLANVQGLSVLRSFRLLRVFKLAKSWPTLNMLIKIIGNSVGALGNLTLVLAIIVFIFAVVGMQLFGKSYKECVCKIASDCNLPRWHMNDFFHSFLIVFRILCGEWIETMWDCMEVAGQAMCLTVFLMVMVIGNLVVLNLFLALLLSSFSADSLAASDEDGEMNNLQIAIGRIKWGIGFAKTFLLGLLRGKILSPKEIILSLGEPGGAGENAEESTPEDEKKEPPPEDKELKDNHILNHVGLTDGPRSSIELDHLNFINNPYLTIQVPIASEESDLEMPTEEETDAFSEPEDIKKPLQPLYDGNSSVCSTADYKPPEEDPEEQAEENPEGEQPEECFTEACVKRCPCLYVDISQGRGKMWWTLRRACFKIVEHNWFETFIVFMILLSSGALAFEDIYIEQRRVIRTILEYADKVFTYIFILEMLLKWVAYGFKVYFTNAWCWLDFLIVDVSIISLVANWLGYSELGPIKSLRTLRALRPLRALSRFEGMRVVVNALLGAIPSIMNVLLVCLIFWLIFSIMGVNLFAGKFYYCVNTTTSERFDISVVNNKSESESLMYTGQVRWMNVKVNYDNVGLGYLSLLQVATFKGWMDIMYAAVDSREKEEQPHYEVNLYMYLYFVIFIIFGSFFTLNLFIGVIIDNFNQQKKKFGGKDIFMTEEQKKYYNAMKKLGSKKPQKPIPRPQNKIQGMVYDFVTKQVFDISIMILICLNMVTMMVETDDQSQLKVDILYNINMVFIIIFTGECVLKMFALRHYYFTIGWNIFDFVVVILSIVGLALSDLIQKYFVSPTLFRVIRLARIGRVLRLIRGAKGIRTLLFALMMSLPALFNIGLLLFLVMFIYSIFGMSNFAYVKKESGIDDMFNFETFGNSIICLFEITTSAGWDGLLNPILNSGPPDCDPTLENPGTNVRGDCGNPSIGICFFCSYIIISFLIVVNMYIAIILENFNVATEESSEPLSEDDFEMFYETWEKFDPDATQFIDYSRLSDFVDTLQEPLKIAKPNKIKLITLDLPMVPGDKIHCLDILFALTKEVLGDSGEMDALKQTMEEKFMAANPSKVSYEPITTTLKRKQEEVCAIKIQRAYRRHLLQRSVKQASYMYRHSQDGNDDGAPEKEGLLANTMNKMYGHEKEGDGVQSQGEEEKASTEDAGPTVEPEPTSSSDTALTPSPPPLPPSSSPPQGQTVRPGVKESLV

Target: T1, rNaV1.4 expressed in CHO cells (Rattus norvegicus, UniProt P15390)
T1 construct: expressed in transfected cells; host or cells: CHO cells
Assay: Activation: current-voltage (I-V) and conductance-voltage (G-V) relationship, whole-cell recording
Assay type: cell-based
Settings: 75 μM
Description: To determine if the shift in I-V relationship is affected by the aromaticity of the aconitine C14 benzoate, current-voltage relationships were recorded for control cells expressing NaV, those that had been modified by aconitine, and those that had been modified by aconitine C14-cyclohexanoate 4.8d. For the modified channels, solutions of 50 μM concentration of the respective toxins were perfused onto the cells, and then depolarizing pulses were applied until a steady state current was observed, generally requiring about 1000 pulses. At that time, current-voltage relationships were again recorded. […] A shift towards hyperpolarizing potentials is clearly observed in both cases. Currents recorded at −50 mV are highlighted for all three experiments.
To determine the effect on current-voltage (I-V) relationship of the aconitine derivatives, whole cell currents were recorded in cells expressing NaV in the presence of aconitine derivatives. Control I-V plots were recorded with unmodified NaV1.4, to which were compared NaV channels modified by aconitine as well as by selected analogs. For the modified channels, solutions of the respective toxins were perfused onto the cells, and then depolarizing pulses were applied until a steady state current was observed, generally requiring about 1000 pulses. […]

| Structure (SMILES) | shift of potential of maximum current towards hyperpolarized [mV] |
| --- | --- |
| CCN1CC2(COC)C3[C@H](OC)C4C1C3(C1C[C@@]3(O)[C@H](OC(=O)c5cc6ccccc6oc5=O)C1[C@]4(OC(C)=O)[C@@H](O)[C@@H]3OC)[C@@H](OC)C[C@H]2O (some centres unmarked) [4.8g] | ≤ 10 |
| CCN1CC2(COC)C3C(OC)C4C1C3(C1C[C@@]3(O)[C@H](OC(=O)c5ccc6ccccc6c5)[C@@H]1[C@]4(OC(C)=O)[C@@H](O)[C@@H]3OC)[C@@H](OC)C[C@H]2O (some centres unmarked) [4.8c] | ≤ 10 |
